# Some of the results follow.
# Assays:
# Test in all cases: glycan array binding signal (z-score within array); higher = stronger binding
# Conditions in all cases: glycan notation: IUPAC condensed, linker removed
# [1] = target: Gal(b1-4)GlcNAc(b1-3)Gal(b1-4)GlcNAc(b1-6)[Gal(b1-3)]GalNAc
# In short: (§1)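 Arrays were curated from the Consortium for Functional Glycomics database, 3228 in total, and kept only where the protein sequence was available. Binding is expressed as a within-array Z-score. This score was averaged across arrays of the same protein sequence at different concentrations or buffers and across linkers, and negative values can be read as non-binding.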
# [2] = target: Gal(b1-4)GlcNAc(b1-3)Gal(b1-4)[Fuc(a1-3)]GlcNAc(b1-3)Gal(b1-4)[Fuc(a1-3)]GlcNAc
# In short: as §1
# [3] = target: Gal(b1-4)GlcNAc(b1-3)GalNAc
# In short: as §1
# [4] = target: Gal(b1-4)GlcNAc(b1-3)[Fuc(a1-3)GlcNAc(b1-6)]Gal(b1-4)Glc
# In short: as §1
# [5] = target: Gal(b1-4)GlcNAc(b1-3)[Gal(b1-4)GlcNAc(b1-6)]Gal(b1-4)GlcNAc
# In short: as §1
# [6] = target: Gal(b1-4)GlcNAc(b1-3)[GlcNAc(b1-6)]Gal(b1-4)GlcNAc
# In short: as §1
# [7] = target: Gal(b1-4)GlcNAc(b1-6)Gal(b1-4)GlcNAc
# In short: as §1
# [8] = target: Gal(b1-4)GlcNAc(b1-6)GalNAc
# In short: as §1
# [9] = target: Gal(b1-4)GlcNAc(b1-6)[Gal(b1-3)]GalNAc
# In short: as §1
# [10] = target: Gal(b1-4)GlcNAc(b1-6)[Gal(b1-4)GlcNAc(b1-3)]GalNAc
# In short: as §1
# [11] = target: Gal(b1-4)GlcNAc6P
# In short: as §1
# [12] = target: Gal(b1-6)Gal
# In short: as §1
# [13] = target: Gal3S(b1-3)GalNAc
# In short: as §1
# [14] = target: Gal3S(b1-3)GlcNAc
# In short: as §1
# [15] = target: Gal3S(b1-3)[Fuc(a1-4)]GlcNAc
# In short: as §1
# [16] = target: Gal3S(b1-4)Glc
# In short: as §1
# [17] = target: Gal3S(b1-4)Glc6S
# In short: as §1
# [18] = target: Gal3S(b1-4)GlcNAc
# In short: as §1
# [19] = target: Gal3S(b1-4)[Fuc(a1-3)]Glc6S
# In short: as §1
# [20] = target: Gal3S(b1-4)[Fuc(a1-3)]GlcNAc
# In short: as §1
# [21] = target: Gal3S(b1-4)[Fuc(a1-3)]GlcNAc6S
# In short: as §1
# [22] = target: Gal3S4S(b1-4)GlcNAc
# In short: as §1
# [23] = target: Gal3S6S(b1-4)GlcNAc
# In short: as §1
# [24] = target: Gal3S6S(b1-4)GlcNAc6S
# In short: as §1
# [25] = target: Gal4S(b1-4)GlcNAc
# In short: as §1
# [26] = target: Gal4S6S(b1-4)GlcNAc
# In short: as §1
# [27] = target: Gal6P(b1-4)GlcNAc
# In short: as §1
# [28] = target: Gal6S(b1-3)GlcNAc
# In short: as §1
# [29] = target: Gal6S(b1-3)GlcNAc6S
# In short: as §1
# [30] = target: Gal6S(b1-4)Glc
# In short: as §1
# [31] = target: Gal6S(b1-4)Glc6S
# In short: as §1
# [32] = target: Gal6S(b1-4)GlcNAc
# In short: as §1
# [33] = target: Gal6S(b1-4)GlcNAc6S
# In short: as §1
# [34] = target: GalNAc(a1-3)Gal
# In short: as §1
# [35] = target: GalNAc(a1-3)GalNAc
# In short: as §1
# [36] = target: GalNAc(a1-3)GalNAc(b1-3)Gal(a1-4)Gal(b1-4)Glc
# In short: as §1
# [37] = target: GalNAc(a1-3)GalNAc(b1-3)Gal(a1-4)Gal(b1-4)GlcNAc
# In short: as §1
binder,measurement,setting,value
his-Lectin-24A (Drosophila melanogaster) (protein) MFRLSVLVLNLLLVSHEFSAGTAKIEIQPLPALCNGYCFPTLKPVMEYVAIHQDKWNTCTEILANEARKDQIQLNIQLDALKADVSNIKASQLSKDEKLDRMEREQFAMHESLETINRYLTVKLDRTKLQLEAIKNTMDYMKAQMDGYFSAINGVQCLQPGFEKIGDRYFYIEEDVELNWLDAQAKCRRMGGHLASIKTKQEFDAIVEKLDDSKSYFLGVNENTKTGDFVSAASGKSCLYHEWGPGEPHHNNDQERCVSILRKLMHVGNCTYEKRFICQYGI,glycan array binding signal (z-score),[1],-0.433
same,glycan array binding signal (z-score),[2],-0.754
same,glycan array binding signal (z-score),[3],-0.396
same,glycan array binding signal (z-score),[4],-0.786
same,glycan array binding signal (z-score),[5],0.17
same,glycan array binding signal (z-score),[6],-0.386
same,glycan array binding signal (z-score),[7],-0.312
same,glycan array binding signal (z-score),[8],0.283
same,glycan array binding signal (z-score),[9],-0.935
same,glycan array binding signal (z-score),[10],0.403
same,glycan array binding signal (z-score),[11],0.309
same,glycan array binding signal (z-score),[12],-2.14
same,glycan array binding signal (z-score),[13],-0.262
same,glycan array binding signal (z-score),[14],-0.89
same,glycan array binding signal (z-score),[15],-0.149
same,glycan array binding signal (z-score),[16],-1.78
same,glycan array binding signal (z-score),[17],-0.469
same,glycan array binding signal (z-score),[18],-0.467
same,glycan array binding signal (z-score),[19],2.17
same,glycan array binding signal (z-score),[20],0.519
same,glycan array binding signal (z-score),[21],0.382
same,glycan array binding signal (z-score),[22],-1.57
same,glycan array binding signal (z-score),[23],0.84
same,glycan array binding signal (z-score),[24],0.863
same,glycan array binding signal (z-score),[25],-0.768
same,glycan array binding signal (z-score),[26],-1.63
same,glycan array binding signal (z-score),[27],0.018
same,glycan array binding signal (z-score),[28],2.26
same,glycan array binding signal (z-score),[29],0.346
same,glycan array binding signal (z-score),[30],-0.962
same,glycan array binding signal (z-score),[31],-0.236
same,glycan array binding signal (z-score),[32],0.295
same,glycan array binding signal (z-score),[33],1.02
same,glycan array binding signal (z-score),[34],0.977
same,glycan array binding signal (z-score),[35],1.11
same,glycan array binding signal (z-score),[36],1.17
same,glycan array binding signal (z-score),[37],-0.19

# A portion from the list above, for reference:
binder,measurement,setting,value
his-Lectin-24A (Drosophila melanogaster) (protein) MFRLSVLVLNLLLVSHEFSAGTAKIEIQPLPALCNGYCFPTLKPVMEYVAIHQDKWNTCTEILANEARKDQIQLNIQLDALKADVSNIKASQLSKDEKLDRMEREQFAMHESLETINRYLTVKLDRTKLQLEAIKNTMDYMKAQMDGYFSAINGVQCLQPGFEKIGDRYFYIEEDVELNWLDAQAKCRRMGGHLASIKTKQEFDAIVEKLDDSKSYFLGVNENTKTGDFVSAASGKSCLYHEWGPGEPHHNNDQERCVSILRKLMHVGNCTYEKRFICQYGI,glycan array binding signal (z-score),[4],-0.786
same,glycan array binding signal (z-score),[5],0.17
same,glycan array binding signal (z-score),[6],-0.386
same,glycan array binding signal (z-score),[7],-0.312
same,glycan array binding signal (z-score),[8],0.283
same,glycan array binding signal (z-score),[9],-0.935
same,glycan array binding signal (z-score),[10],0.403
same,glycan array binding signal (z-score),[11],0.309
same,glycan array binding signal (z-score),[12],-2.14

# — the supplement of paper PMC8728848
